Where “and” joins values, the source holds several entries; their conditions need not be identical. Identical values can stand only once. Among all 320,000 compounds or so, about 22,000 (6.9%) were called active. This list was built around the results that the source calls inconclusive (neither active nor inactive); the mix of calls is not that of the screen. Calls come from the whole dose curve; as a rule, active = well fitted inhibition curve with a large enough effect; inconclusive = small, poorly fitted or top-dose-only effect, or another doubt; inactive = no such curve, though single readings can be large or run the other way. Potencies of inconclusive entries are doubtful fits and often do not repeat.
Assay: Primary qHTS for delayed death inhibitors of the malarial parasite plastid, 96 hour incubation
Conditions: P. falciparum luciferase reporter growth; series mostly up to 28.7 µM
Summary of the method: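 Readout is luminescence from an integrated firefly luciferase in P. falciparum. Red cells, 2% hematocrit and 0.05% parasitemia final, were cultured with compound through two parasite generations (96 hours) at 37 C, 5% CO2.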
For N#Cc1c2c(c(Nc3ccccc3)n3c1nc1ccccc13)CCC2, the Potency was inconclusive: 9.28 µM [inhibitor, single point]. For COc1cccc(NC(=O)C2C3C=CC(C3)C2C(=O)O)c1 (stereo not given), the Potency was “inactive”. For COc1ccc(/C=C/C(=O)NC2CCCCCCC2)cc1S(=O)(=O)N1CCOCC1, the Potency was active: 5.86 µM. With Cc1ccc(/C=N/NC(=O)C2=NNC(c3ccccc3)(c3ccccc3)C2)c(O)c1 the Potency was inconclusive: 11.7 µM [inhibitor, single point]. In the case of COC(=O)Nc1ccc(S(=O)(=O)N2CCCC(C(=O)NC3CCCCC3)C2)cc1 (stereo not given), the Potency is reported as inconclusive: 10.4 µM [inhibitor, partial curve, poor fit]. With CN(Cc1ccccc1)C(=O)CCn1c(=O)c2cccn2c2cccnc21 the Potency was inconclusive: 10.4 µM [inhibitor, partial curve]. In the case of O=[N+]([O-])c1ccc(N2CCCC2)cc1NC(c1ccccc1)c1ccccc1, the Potency is reported as inconclusive: 11.7 µM [inhibitor, single point]. In the case of Cc1ccc(NC(=O)/C(=C/c2cccc([N+](=O)[O-])c2)NC(=O)C2CCCCC2)c(C)c1, the Potency is reported as inconclusive: 0.0465 µM [inhibitor, full curve, poor fit]. For CCN(CC(=O)NCC1CCCO1)S(=O)(=O)c1ccc(Cl)cc1 (stereo not given), the Potency was inconclusive: 18.5 µM [inhibitor, single point]. For Cc1cnc(NC(=O)c2cccc(S(=O)(=O)N3CC(C)OC(C)C3)c2)s1 (stereo not given), the Potency was active: 13.1 µM. With CC12CN3CC(C)(CN(C1)C3c1ccc3c(c1)OCO3)C2=O (stereo not given) the Potency was “inactive”. In the case of c1ccc2[nH]c(NC3=NCCC3)nc2c1, the Potency is reported as inconclusive: 2.62 µM [inhibitor, full curve, poor fit]. For Cc1ccc(SCC(=O)N=C2NC(=O)CS2)cc1, the Potency was inconclusive: 13.1 µM [inhibitor, single point]. With COc1ccccc1CC(=O)NCCN1CCCCC1 the Potency was “inactive”. For CN1CCN(c2ncnc3scc(-c4ccccc4Cl)c23)CC1, the Potency was active: 5.86 µM. With CC(=O)N1c2ccccc2[C@@H](C)[C@@H]1C the Potency was “inactive”. For CCOc1ccccc1NC(=O)c1ccc(S(=O)(=O)N(C)C)cc1, the Potency was inconclusive: 10.4 µM [inhibitor, single point]. With O=C(CCN1CCc2ccccc2C1)Nc1ccccc1 the Potency was “inactive”. For O=c1ccc(-c2n[nH]c(=S)n2-c2ccc(F)c(Cl)c2)n[nH]1, the Potency was inconclusive: 0.0033 µM [inhibitor, partial curve, poor fit]. For C=CCn1c(SCC(=O)Nc2cccc3ccccc23)nnc1-c1cnccn1, the Potency was inconclusive: 2.08 µM [inhibitor, partial curve, poor fit]. For COc1ccc(N2CCN(C(=O)c3cc(C4CC4)nn3-c3ccccc3)CC2)cc1, the Potency was inconclusive: 18.5 µM [inhibitor, single point]. With CCOc1ccc(C(=O)Nc2ccccc2N2CCOCC2)cc1 the Potency was inconclusive: 13.1 µM [inhibitor, single point]. For CCCn1c(N)c(C(=O)CN(C)CC(=O)Nc2ccccc2CC)c(=O)[nH]c1=O, the Potency was “inactive”. With CCc1nc2c(c(=O)c3ccccc3n2C)c(=O)n1CCc1ccc(OC)cc1 the Potency was inconclusive: 3.29 µM [inhibitor, full curve, poor fit]. In the case of O=C(Nc1ccncc1)Nc1ccc(F)cc1, the Potency is reported as inconclusive: 13.1 µM [inhibitor, single point]. For Cc1ccc(NC(=O)C2CCCN(c3ncccn3)C2)cc1F (stereo not given), the Potency was “inactive”. With COC(=O)C1=C(C)NC2=C(C(=O)CC(C)(C)C2)C1c1cn(Cc2ccc(Br)cc2)nc1-c1ccccc1 (stereo not given) the Potency was inconclusive: 1.04 µM [inhibitor, partial curve, poor fit]. For Cc1[nH]c2ccccc2c1[C@H]1[C@@H](CC#N)C1(C)C, the Potency was inconclusive: 11.7 µM [inhibitor, single point]. In the case of Nc1c(C(=O)Nc2ccccc2)c2nc3ccccc3nc2n1CCCN1CCOCC1, the Potency is reported as inconclusive: 4.15 µM [inhibitor, partial curve, poor fit]. For CC1CC(C)CN(S(=O)(=O)N2CCC(C(=O)NCCC3=CCCCC3)CC2)C1 (stereo not given), the Potency was inconclusive: 0.104 µM [inhibitor, full curve, poor fit]. In the case of CCSc1nc2c([nH]c3ccccc32)c(=O)n1C, the Potency is reported as “inactive”. For Cc1ccc(S(=O)(=O)Oc2ccc(/C=N/N=C3/NC(=O)C(CC(=O)O)S3)cc2)cc1[N+](=O)[O-] (stereo not given), the Potency was “inactive”. With Cc1cccc(C)c1OCc1nnc(NC(=O)CSc2ccc(Cl)cc2)s1 the Potency was inconclusive: 0.147 µM [inhibitor, full curve, poor fit]. With CC1(C)CC(=O)C2=C(C1)N(CC1CCCO1)C(=O)NC2(C(F)(F)F)C(F)(F)F (stereo not given) the Potency was inconclusive: 18.5 µM [inhibitor, single point]. With Cc1ccc(S(=O)(=O)N/N=C\c2cn(-c3ccccc3)nc2-c2ccccc2)cc1 the Potency was “inactive”. For Cc1ccc(NC(=O)c2sc3ncn(CC(=O)N4CCOCC4)c(=O)c3c2C)c(Br)c1, the Potency was active: 11.7 µM. In the case of O=c1[nH]c2ccc(Br)cc2c(-c2ccccc2)c1CN1CCOCC1, the Potency is reported as inconclusive: 11.7 µM [inhibitor, partial curve]. With O=c1c2ccccc2[nH]c(=S)n1CCN1CCCC1 the Potency was “inactive”. For Cc1ccnc2nc(C(=O)OCC(=O)Nc3ccccc3C(C)(C)C)nn12, the Potency was “inactive”. With Cc1nn(-c2ccccc2)c2sc(C(=O)n3cccn3)cc12 the Potency was inconclusive: 18.5 µM [inhibitor, single point]. In the case of Clc1ccc(COC(Cn2ccnc2)c2ccc(Cl)cc2Cl)cc1 (stereo not given), the Potency is reported as active: 1.9 µM and active: 1.85 µM. With CC(=O)c1ccc(OCC(=O)OCc2cc(-c3ccco3)on2)cc1 the Potency was “inactive”. For Cc1ccc(NC(=O)CSC(C)c2nc3ccccc3c(=O)[nH]2)cc1 (stereo not given), the Potency was active: 14.7 µM. In the case of Cc1ccc(NC(=O)c2cccc(S(=O)(=O)N3CCCc4ccccc43)c2)nc1, the Potency is reported as inconclusive: 0.294 µM [inhibitor, full curve, poor fit]. For O=C(c1nn2c(C(F)(F)F)cc(-c3ccccc3)nc2c1Cl)N1CCN2CCCC2C1 (stereo not given), the Potency was inconclusive: 18.5 µM [inhibitor, single point].

— PubChem BioAssay AID504834 (National Center for Advancing Translational Sciences (NCATS), 2011)
Potency is the fitted concentration of half-maximal effect.
